Assay results taken from patent publication US5114851A, “Light activated acyl-enzymes” (Duke University, priority 1989, dated 1992).

Test: Photolysis of model compounds and cyclization of the cis photoisomer to the coumarin (conventional spectroscopy or flash photolysis)
Type: physicochemical
From the text: Preliminary to our studies of the enzyme system, we studied the photochemistry of the model compounds Ethyl-(E)-2-methoxy-4-diethylamino-α-methylcinnamate and Ethyl-(E)-2-hydroxy-4-diethylamino-α-methylcinnamate (hereinafter "DEA acyl", as this compound models DEA acyl-thrombin with ethyl in place of thrombin). Photolysis of Ethyl-(E)-2-methoxy-4-diethylamino-α-methylcinnamate with 366 nm light results in a rapid decrease in absorbance as the cis photoisomer is formed (In all photolyses reported here, except for the laser flash studies, the source lamp was a mercury 500 W high pressure lamp. The 366 nm emission was isolated by a Bausch and Lomb grating monochromator). […] Photolysis for 5 minutes of DEA acyl in 98% ethanol/2% pH 7.4 Tris buffer gives a sharp decrease in the absorbance at 360 nm, followed by a slow increase in absorbance at 380 nm due to the dark formation of the 3-methyl-7-N,N-diethylamino-coumarin (hereafter "the coumarin"). The increase in the absorbance due to the coumarin is first order with kc =7.17·10^-4 s^-1. […]
No evidence for a cis acyl enzyme photoisomer is seen by conventional spectroscopy. […] For both DEA acyl and DEA acyl-thrombin, the flash results in an immediate decrease in absorbance at 380 nm, followed by a first order increase of absorbance as the coumarin forms from the cis intermediate.

Compound | yield of coumarin on photolysis (under all of the conditions described) | cis photoisomer in the mixture at the photostationary state (366 nm light)
CCOC(=O)/C(C)=C/c1ccc(N(CC)CC)cc1O [DEA acyl, Ethyl-(E)-2-hydroxy-4-diethylamino-α-methylcinnamate] | essentially quantitative | 
CCOC(=O)/C(C)=C/c1ccc(N(CC)CC)cc1OC [Ethyl-(E)-2-methoxy-4-diethylamino-α-methylcinnamate] |  | 60%
